Data published in article PMC7923384.
These are yes or no findings as the source states them, for the method shown. Binding seen in cells or lysates may run through a third protein. For some of these results: A result given as binding can be weak or reduced; the word gives no strength.

Assays:
Assay in all cases: co-IP; tagged proteins (Flag-ZMYND8 and its truncation mutants, Myc-EZH2 WT or mutants) expressed by transfection in 293T cells, some with V5-CDK1 co-expressed; immunoprecipitation from lysate, Western blot; both orientations done
Flag-ZMYND8 ΔC2 = molecular target: Flag-ZMYND8 ΔC2
Flag-ZMYND8 ΔPBP = molecular target: Flag-ZMYND8 ΔPBP
Flag-ZMYND8 ΔC3 = molecular target: Flag-ZMYND8 ΔC3
Flag-ZMYND8 ΔC1 = molecular target: Flag-ZMYND8 ΔC1

B1: FOXM1 in 293T cells (protein, UniProt Q08050 1-763)
chain: MKTSPRRPLILKRRRLPLPVQNAPSETSEEEPKRSPAQQESNQAEASKEVAESNSCKFPAGIKIINHPTMPNTQVVAIPNNANIHSIITALTAKGKESGSSGPNKFILISCGGAPTQPPGLRPQTQTSYDAKRTEVTLETLGPKPAARDVNLPRPPGALCEQKRETCADGEAAGCTINNSLSNIQWLRKMSSDGLGSRSIKQEMEEKENCHLEQRQVKVEEPSRPSASWQNSVSERPPYSYMAMIQFAINSTERKRMTLKDIYTWIEDHFPYFKHIAKPGWKNSIRHNLSLHDMFVRETSANGKVSFWTIHPSANRYLTLDQVFKPLDPGSPQLPEHLESQQKRPNPELRRNMTIKTELPLGARRKMKPLLPRVSSYLVPIQFPVNQSLVLQPSVKVPLPLAASLMSSELARHSKRVRIAPKVLLAEEGIAPLSSAGPGKEEKLLFGEGFSPLLPVQTIKEEEIQPGEEMPHLARPIKVESPPLEEWPSPAPSFKEESSHSWEDSSQSPTPRPKKSYSGLRSPTRCVSEMLVIQHRERRERSRSRRKQHLLPPCVDEPELLFSEGPSTSRWAAELPFPADSSDPASQLSYSQEVGGPFKTPIKETLPISSTPSKSVLPRTPESWRLTPPAKVGGLDFSPVQTSQGASDPLPDPLGLMDLSTTPLQSAPPLESPQRLLSSEPLDLISVPFGNSSPSDIDVPKPGSPEPQVSGLAANRSLTEGLVLDTMNDSLSKILLDISFPGLDEDPLGPDNINWSQFIPELQ
Flag-ZMYND8 ΔC2
  binding: binds
Flag-ZMYND8 ΔPBP
  binding: binds
Flag-ZMYND8 ΔC3
  binding: binds
Flag-ZMYND8 ΔC1
  binding: no binding
